Assay [1] deals with Polε-GFP (catalytic subunit of Polε, Cdc20, GFP tagged) (S. pombe) (UniProt P87154). Kind of assay: co-IP; cells treated with 1% formaldehyde, lysed in RIPA buffer, sonicated, benzonase; immunoprecipitation with anti-GFP (tagged polymerase), blot with anti-PCNA; cells with or without hydroxyurea; rad18Δ, rad18+ and Purg1-rad18 cells.
Assay [2] addresses T1, PCNA (S. pombe Pcn1) (S. pombe (endogenous in S. pombe cells)) (UniProt Q03392).
T1 sequence: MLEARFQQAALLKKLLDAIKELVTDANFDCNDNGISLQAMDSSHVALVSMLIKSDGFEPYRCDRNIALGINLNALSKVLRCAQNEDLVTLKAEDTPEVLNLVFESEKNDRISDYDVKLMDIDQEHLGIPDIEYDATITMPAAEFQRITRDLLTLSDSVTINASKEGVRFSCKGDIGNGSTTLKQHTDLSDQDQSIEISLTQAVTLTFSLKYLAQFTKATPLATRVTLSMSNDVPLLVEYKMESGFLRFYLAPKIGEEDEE
Kind of assay: co-IP; cells treated with 1% formaldehyde, lysed in RIPA buffer, sonicated, benzonase; immunoprecipitation with anti-PCNA, blot with anti-GFP (tagged polymerase); cells with or without hydroxyurea; rad18Δ, rad18+, Purg1-rad18, ubc13Δ, pcn1-K164R, elg1Δ backgrounds.

Chains of the proteins cited; added tags and fusions are not shown.
UniProt P87154: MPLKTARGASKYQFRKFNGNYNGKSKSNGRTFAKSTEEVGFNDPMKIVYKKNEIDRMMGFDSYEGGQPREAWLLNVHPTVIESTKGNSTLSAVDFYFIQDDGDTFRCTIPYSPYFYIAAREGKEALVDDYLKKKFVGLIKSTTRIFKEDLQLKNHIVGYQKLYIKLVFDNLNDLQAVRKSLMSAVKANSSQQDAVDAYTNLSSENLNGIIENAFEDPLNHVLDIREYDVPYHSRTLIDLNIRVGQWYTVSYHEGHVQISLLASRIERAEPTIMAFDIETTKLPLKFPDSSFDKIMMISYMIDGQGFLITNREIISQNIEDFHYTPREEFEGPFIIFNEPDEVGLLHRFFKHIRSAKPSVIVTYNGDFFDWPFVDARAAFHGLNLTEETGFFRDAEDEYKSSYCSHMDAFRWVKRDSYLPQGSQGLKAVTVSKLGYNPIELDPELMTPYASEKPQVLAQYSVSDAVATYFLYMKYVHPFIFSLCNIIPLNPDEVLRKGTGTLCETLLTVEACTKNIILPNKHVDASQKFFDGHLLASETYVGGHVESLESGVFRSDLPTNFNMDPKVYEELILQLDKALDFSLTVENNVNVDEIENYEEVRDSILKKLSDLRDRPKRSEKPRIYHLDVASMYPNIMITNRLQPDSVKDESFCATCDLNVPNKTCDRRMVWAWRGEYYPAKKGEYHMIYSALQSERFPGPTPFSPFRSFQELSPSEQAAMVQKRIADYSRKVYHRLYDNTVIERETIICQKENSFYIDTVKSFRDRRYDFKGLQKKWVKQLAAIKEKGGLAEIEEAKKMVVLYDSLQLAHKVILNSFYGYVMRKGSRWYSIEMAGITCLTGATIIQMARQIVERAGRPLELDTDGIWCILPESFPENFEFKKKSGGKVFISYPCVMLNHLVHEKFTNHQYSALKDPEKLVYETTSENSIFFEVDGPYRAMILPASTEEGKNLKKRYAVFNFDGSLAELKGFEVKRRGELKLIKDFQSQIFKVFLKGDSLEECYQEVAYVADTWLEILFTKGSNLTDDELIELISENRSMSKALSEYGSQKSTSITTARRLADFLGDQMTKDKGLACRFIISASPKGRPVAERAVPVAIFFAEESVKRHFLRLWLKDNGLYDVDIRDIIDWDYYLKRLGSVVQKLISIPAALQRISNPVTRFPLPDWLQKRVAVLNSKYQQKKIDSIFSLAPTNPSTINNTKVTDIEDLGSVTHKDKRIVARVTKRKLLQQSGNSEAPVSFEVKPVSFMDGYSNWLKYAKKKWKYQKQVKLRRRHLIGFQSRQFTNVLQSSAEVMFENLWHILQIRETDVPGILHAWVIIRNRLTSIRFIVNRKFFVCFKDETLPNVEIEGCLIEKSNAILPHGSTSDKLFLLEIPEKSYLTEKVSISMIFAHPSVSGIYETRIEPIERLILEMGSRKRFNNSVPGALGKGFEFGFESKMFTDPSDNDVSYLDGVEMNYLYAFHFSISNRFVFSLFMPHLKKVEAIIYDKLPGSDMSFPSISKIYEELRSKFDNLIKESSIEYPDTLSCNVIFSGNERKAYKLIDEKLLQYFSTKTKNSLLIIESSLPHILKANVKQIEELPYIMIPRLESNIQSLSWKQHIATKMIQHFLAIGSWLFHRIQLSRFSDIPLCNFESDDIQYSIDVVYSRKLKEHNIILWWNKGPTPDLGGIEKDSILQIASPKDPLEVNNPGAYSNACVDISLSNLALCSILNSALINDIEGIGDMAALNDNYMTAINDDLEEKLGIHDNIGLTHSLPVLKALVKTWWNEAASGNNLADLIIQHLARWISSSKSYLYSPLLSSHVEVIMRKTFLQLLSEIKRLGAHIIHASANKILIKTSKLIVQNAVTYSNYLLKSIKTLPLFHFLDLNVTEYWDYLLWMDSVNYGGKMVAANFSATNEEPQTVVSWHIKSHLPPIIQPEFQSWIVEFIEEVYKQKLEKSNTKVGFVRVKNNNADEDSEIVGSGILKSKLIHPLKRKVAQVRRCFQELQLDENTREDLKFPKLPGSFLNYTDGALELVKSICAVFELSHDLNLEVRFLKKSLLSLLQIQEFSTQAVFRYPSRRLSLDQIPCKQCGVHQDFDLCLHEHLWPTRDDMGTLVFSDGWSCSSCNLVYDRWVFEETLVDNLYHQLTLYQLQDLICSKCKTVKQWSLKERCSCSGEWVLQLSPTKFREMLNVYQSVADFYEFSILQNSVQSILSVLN

These are yes or no findings as the source states them, for the method shown. Binding seen in cells or lysates may run through a third protein. Some results given as binding are weak or reduced against the parent protein; the word gives no strength. For some assays here: Where a sequence is shown, tags or fusion partners need not be part of it.

B1: PCNA (S. pombe Pcn1) (protein, UniProt Q03392 1-260)
chain: MLEARFQQAALLKKLLDAIKELVTDANFDCNDNGISLQAMDSSHVALVSMLIKSDGFEPYRCDRNIALGINLNALSKVLRCAQNEDLVTLKAEDTPEVLNLVFESEKNDRISDYDVKLMDIDQEHLGIPDIEYDATITMPAAEFQRITRDLLTLSDSVTINASKEGVRFSCKGDIGNGSTTLKQHTDLSDQDQSIEISLTQAVTLTFSLKYLAQFTKATPLATRVTLSMSNDVPLLVEYKMESGFLRFYLAPKIGEEDEE
Take B1: in assay [1], the binding result is “no binding”.

B2: Polη, GFP-tagged (S. pombe) (protein, UniProt O42917 1-872)
chain: MELGKSKFSWKDLQYCDKAGTQNSPLRVVAHIDQDAFYAQVESVRLGLDHSVPLAVQQWQGLIAVNYAARAANISRHETVTEAKKKCPELCTAHVKTWKAGESEAKYHENPNPNYYKTCLDPYRHESVKILNIIKKHAPVVKKASIDECFIELTSDVKRIVLEEYPYLKIPSEDSNVALPQAPVLLWPAEFGMVIEEEVVDRTKEDYERDWDDVFLFYAAKIVKEIRDDIYLQLKYTCSAGVSFNPMLSKLVSSRNKPNKQTILTKNAIQDYLVSLKITDIRMLGGKFGEEIINLLGTDSIKDVWNMSMDFLIDKLGQTNGPLVWNLCHGIDNTEITTQVQIKSMLSAKNFSQQKVKSEEDAINWFQVFASDLRSRFLELEGMRRPKTICLTVVSRFLRKSRSSQIPMNVDISTQFIVEATSKLLRQLQQEFDVYPISNLSISFQNIIEVDRNSRGIEGFLKKSNDEIYMSTSVSPSIEGRAKLLNENMRENNSFELSSEKDIKSPKRLKRGKGKGIFDMLQQTAVSKPTENSADETYTCEECEQKITLSERNEHEDYHIALSISRKERYNNLVPPSHDKPKQVKPKTYGRKTGSKHYAPLSDETNNKRAFLDAFLGNGGNLTPNWKKQTPKAISNSSDNMTQLHLDLANSTVTCSECSMEYNSTSEEDILLHSRFHSRVLGGVTVSFQCSPIYRVNYGLSSDCIYSINSESSLIDQRKAEEALSFVNNELSSEPIETIGVDKYTTFLFISDKKCVGLLLAERISSAYIVDELELNNNNSTSSAVYIKNENLRKGFVLGISRIWVSASRRKQGIASLLLDNALKKFIYGYVISPAEVAFSQPSESGKQFIISWHRSRNNGSSKSLRYAVYES
On to B2, for which the binding entry in assay [2] is “binds weakly”.

The values are drawn from paper PMC5440044.
